PubChem BioAssay AID2718 (Broad Institute, 2010)
In all, about 320,000 compounds went through this assay and about 480 (0.15%) were called active. This list was built around the results that the source calls inconclusive (neither active nor inactive); the mix of calls is not that of the screen. Rule as the data show it: active = inhibition above about 26% (passing the limit was not always enough); inconclusive = no clear call, values can overlap the other calls.

Chains of the proteins cited; added tags and fusions are not shown.
UniProt O15379, whole entry, looked up: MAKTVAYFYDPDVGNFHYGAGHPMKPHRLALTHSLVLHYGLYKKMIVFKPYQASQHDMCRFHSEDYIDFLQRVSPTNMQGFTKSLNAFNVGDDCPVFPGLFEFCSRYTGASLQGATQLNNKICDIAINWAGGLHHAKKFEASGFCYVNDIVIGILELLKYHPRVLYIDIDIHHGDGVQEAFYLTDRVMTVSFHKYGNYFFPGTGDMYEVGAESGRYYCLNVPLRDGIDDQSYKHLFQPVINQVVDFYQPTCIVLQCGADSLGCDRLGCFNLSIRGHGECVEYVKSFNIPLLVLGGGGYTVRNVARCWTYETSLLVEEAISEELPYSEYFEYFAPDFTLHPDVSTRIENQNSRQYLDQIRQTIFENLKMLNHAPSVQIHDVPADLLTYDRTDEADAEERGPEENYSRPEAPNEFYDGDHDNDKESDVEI

These molecules were tested against Histone deacetylase 3 (Homo sapiens) (UniProt O15379) (assay: HDAC3 deacetylase inhibitors, primary screen, biochemical, fluorescence, cell-free homogeneous (AID 2718)). Details: recombinant HDAC3, fluorogenic peptide/trypsin coupled, at 8.3 µM, stronger effect = higher value.

Compound | inhibition
COc1cc2[nH]c3ccccc3c2cc1C | inactive: 1.59%
COc1ccc(CCN2C(=NC(=O)CC(C)C)SC3CS(=O)(=O)CC32)cc1 (centres undefined) | inconclusive: 21.8%
c1cc2c(cc1C1=NNC(=NC3CC3)SC1)OCCO2 | inactive: 9.84%
COc1ccc(OC)c(S(=O)(=O)Nc2cccc(O)c2)c1 | inactive: 0.913%
Cc1ccc2nc(N3CC(C)OC(C)C3)nc(-c3ccccc3)c2c1 (centres undefined) | inconclusive: 19.6%
CCCCCCCCCCOC(=O)Cn1c(COc2ccc(Cl)cc2)[n+](C)c2ccccc21 | active: 52%
CCc1ccccc1N(CC)C(=O)CCc1nc(-c2ccc(C)cc2)no1 | inconclusive: 22.2%
CC(C)C[C@H](NC(=O)c1[nH]cnc1C(=O)N[C@@H](C)c1ccccc1)C(=O)OCc1ccccc1 | inconclusive: 18.3%
O=C(Nc1cc2c(cc1Br)OCCO2)c1ccc(=O)[nH]c1 | inconclusive: 6.72%
CCOC(=O)COn1c(=O)c(-c2cccs2)[n+]([O-])c2ccccc21 | active: 52.6%
[O-][n+]1c2ccccc2c2n1CCCN=C2c1ccc(Cl)cc1 | inactive: 2.58%
Cc1ccc(C)c(Nc2ncccc2C(=O)NCc2cccs2)c1 | inconclusive: 20%
COc1ccc(C(=O)Oc2cc(N)n(S(=O)(=O)c3ccc(C)cc3)n2)cc1 | inconclusive: 34.9%
COc1cccc(C2CC(=O)N3CN(c4cccc(Cl)c4C)CSC3=C2C#N)c1OC (centres undefined) | active: 50.6%
CNC(=O)c1ccc(NC(=O)C2CCN(S(=O)(=O)c3cccc(C(F)(F)F)c3)CC2)cc1 | inconclusive: 18.4%
CC(C)c1ccc(-c2nc(N3CCCCCC3)nc3n[nH]c(N)c23)cc1 | inconclusive: 16.7%
CCOc1ccccc1CN1CCNC(=O)C1CC(=O)N(C)CCc1cnn(C)c1 (centres undefined) | inconclusive: 23.1%
CCOC(=O)C1CCN(c2nc3cc(OC)ccc3cc2C#N)CC1 | inconclusive: 12.4%
O=C(O)c1ncn(Cc2ccc(Br)cc2)c1C(=O)O | inconclusive: 20.7%
COc1ccc(N2CC(C(=O)NCCC3=CCCCC3)CC2=O)c(OC)c1 (centres undefined) | inconclusive: 19.1%
CCSc1ncc(/C=N/Nc2ccc(Cl)cc2)n1C | inconclusive: 19.8%
C/C=C(\C)CN1CCC(Oc2cc(C(=O)NC3CC3)ccc2OC)CC1 | inactive: -5.89%
N#CCC(CNc1ncc(C(F)(F)F)cc1Cl)OC(=O)c1cccc(C(F)(F)F)c1 (centres undefined) | inconclusive: 25.5%
C=CC[C@H](CC(=O)N[C@H](CO)Cc1ccccc1)C(=O)N[C@@H](COC(=O)[C@H](CC=C)CC(=O)OC(C)(C)C)Cc1c[nH]c2ccccc12 | active: 44.3%
O=C(NN=C1CCCC1)c1cc(-c2ccccc2)n[nH]1 | inconclusive: 23.3%
COc1cc(-c2nnc(SCC(=O)NC3CCCC3)n2C)cc(OC)c1O | inactive: 2.15%
O=C(NCCSc1ccccc1)c1ccccc1Cl | inconclusive: 20.7%

Reformatted: entries from further up.
Compound,inhibition
CCOc1ccccc1CN1CCNC(=O)C1CC(=O)N(C)CCc1cnn(C)c1 (centres undefined),inconclusive: 23.1%
CCOC(=O)C1CCN(c2nc3cc(OC)ccc3cc2C#N)CC1,inconclusive: 12.4%
O=C(O)c1ncn(Cc2ccc(Br)cc2)c1C(=O)O,inconclusive: 20.7%

Continuation.

Compound | inhibition
OCCC1CN(CC#Cc2ccccc2)CCN1Cc1ccccc1F (centres undefined) | inconclusive: 9.46%
O=C1C2C3C=CC(C3)C2C(=O)N1/N=C/c1cn(Cc2ccc(F)cc2)c2ccccc12 (centres undefined) | inconclusive: 27.1%
CCCCC(=O)OCC(=O)c1[nH]c(C)c(C(C)=O)c1C | inconclusive: 15.2%
O=C(Nc1cc2c3c(c1)CC(=O)N3CCC2)c1ccccc1C(F)(F)F | inconclusive: 23.6%
Cc1c(Cl)cccc1NC(=S)NCCc1ccc(Cl)cc1 | inactive: -1.79%
CCC(C)(C)NC(=S)Nc1ccc(-c2nc3ccc(C)cc3s2)cc1 | inconclusive: 21.6%
CN1CCN(C(=O)CCc2nnc3ccc(N4CCC5(CC4)OCCO5)nn23)CC1 | inconclusive: 17.9%
CC1CC(C)CN(c2ccc(-n3cnnn3)cc2[N+](=O)[O-])C1 (centres undefined) | inconclusive: 12.4%
COc1ccc2sc(-c3ccccc3OC)c(-c3ccc(OC)c(F)c3)c2c1 | inactive: -5.96%
C[C@H](CO)N1C[C@H](C)[C@@H](CN(C)S(=O)(=O)c2ccccc2)Oc2c(NC(=O)Nc3ccc(C(F)(F)F)cc3)cccc2C1=O | inconclusive: 32.5%
CCOc1ccc(CCNC(=O)COC(=O)c2cccc(N(C)C)c2)cc1OCC | inactive: -6.58%
Cc1cccc(NS(=O)(=O)c2cccc(C(=O)N3CC(C)OC(C)C3)c2)c1 (centres undefined) | inconclusive: 15.9%
CCc1nnc(NS(=O)(=O)c2ccc(NC(=O)CCC(=O)O)cc2)s1 | inactive: -3.33%
CN1CCN(C(=O)C2=C[C@@H](c3csc4ccccc34)C[C@@H](OCc3ccc(CO)cc3)O2)CC1 | inconclusive: 4.31%
O=C(c1ccc(Cl)c(Cl)c1)N1CCC(=O)N(C(COCc2cccc(C(F)(F)F)c2)Cc2ccccc2)CC1 (centres undefined) | inconclusive: 19.9%
Cc1noc(C)c1C(=O)N1CCc2ccccc2C1 | inconclusive: 14.3%
Cc1cc(-n2c(C)cc(C(=O)CN3C(=O)NC4(CCCCC4C)C3=O)c2C)no1 (centres undefined) | inconclusive: 15.5%
CCC(=O)Nc1ccc(NC(=O)CSc2nnc(C(C)C)n2C)cc1 | inconclusive: 14.9%
CCOC(=O)/C(C#N)=C/c1ccc(N2CCN(Cc3ccccc3)CC2)cc1 | inconclusive: 19.8%
COc1ccc(OC)c(C2=NOC(C(=O)NCc3cccnc3)C2)c1 (centres undefined) | inconclusive: 20.6%
COc1ccc(OC)c(C2CC(=O)N3CN(c4ccccc4)CSC3=C2C#N)c1 (centres undefined) | active: 53.7%
Cc1cc(C(=O)OCC(=O)N(C)c2ccccc2)ccc1[N+](=O)[O-] | inconclusive: 13.6%
CCc1nccn1S(=O)(=O)c1ccc(OC)c(C)c1C | inconclusive: 16.9%
CC(C)C[C@H](NC(=O)c1nc[nH]c1C(=O)NCc1ccccc1)C(=O)OC(C)(C)C | active: 39.8%
Cc1ccc(N2CCN(/N=C/c3cccs3)CC2)cc1 | inconclusive: 18.3%
COCC(C)n1c(C)cc(C(=O)COC(=O)c2ccc3ncsc3c2)c1C (centres undefined) | inactive: 4.26%
Cc1ccccc1NC(=O)CSc1nc(=O)n(CCN2CCOCC2)c2c1CCCC2 | inconclusive: 20.9%
